Assay [1] concerns the target HTRA1 (construct not given) (Homo sapiens (Human)) (UniProt Q92743). Put plainly: SPR (Biacore).
Assay [2] has the same target. Put plainly: SPR (Biacore), FIG. 14. (Surface plasmon resonance follows binding to a sensor surface in real time, without labels.)
Assay [3] shares this target. Put plainly: SPR (Biacore), 25° C.; hz24F7.v2 samples stored at pH 7.4, 40° C. for 0 to 8 weeks.
Assay [4] shares this target. Put plainly: SPR (Biacore), captured hz24F7.v2 samples stored 0, 2, 4 and 8 weeks at pH 7.4, 40 C, HTRA1 injected (Table 14).
Assay [5] shares this target. Put plainly: SPR (Biacore) and enzyme assay, summary of Example 11.

Amino acid sequences for entries named in this document (tags omitted). A change or cut given only in a name is not applied to a line headed by its entry.
UniProt Q92743: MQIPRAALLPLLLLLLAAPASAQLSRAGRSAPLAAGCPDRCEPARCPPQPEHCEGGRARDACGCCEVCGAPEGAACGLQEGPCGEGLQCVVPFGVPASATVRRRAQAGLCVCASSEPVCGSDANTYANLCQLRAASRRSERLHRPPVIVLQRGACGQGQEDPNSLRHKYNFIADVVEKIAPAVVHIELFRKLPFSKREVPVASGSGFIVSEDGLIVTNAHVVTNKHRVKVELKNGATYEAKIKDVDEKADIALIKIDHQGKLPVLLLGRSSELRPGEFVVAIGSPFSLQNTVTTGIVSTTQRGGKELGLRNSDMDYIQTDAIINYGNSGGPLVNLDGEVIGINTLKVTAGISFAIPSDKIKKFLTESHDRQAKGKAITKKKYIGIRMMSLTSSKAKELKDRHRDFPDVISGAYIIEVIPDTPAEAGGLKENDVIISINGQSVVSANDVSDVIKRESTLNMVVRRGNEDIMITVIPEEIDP

Residue numbers refer to the chain shown, from its start. Names and notes keep the numbering of the source. No constants are given. Whether binding was seen depends on the method and setting. Some binding calls cover weakened binding; strength is not graded here.

B1: antibody hz24F7.v2 (antibody, human IgG1, kappa, N297G, V domains shown)
VH: QVQLVQSGAEVKKPGASVKVSCKASGYTFTDYEMHWVRQAPGQRLEWMGAIDPETGGTAYNQKFKGRVTITADKSASTAYMELSSLRSEDTAVYYCTREGYSYEGGGYYFDYWGQGTLVTVSS
VL: DIQMTQSPSSLSASVGDRVTITCSVSSSVSYMYWYQQKPGKAPKLLIYDTSNLASGVPSRFSGSGSGTDFTFTISSLQPEDIATYYCQQWSSYPTFGQGTKLEIKR
Consider B1, for which the binding entry in assay [1], in assay [2], in assay [3] and in assay [4] was “binds” each time.

B2: hz24F7.v2 S92Y (antibody, human IgG1, kappa, N297G, V domains shown)
VH: B1 VH
VL: B1 VL with S92Y
Consider B2, for which the binding result in assay [1] was “binds”.

B3: hz24F7.v2 S91Y (antibody, human IgG1, kappa, N297G, V domains shown)
VH: B1 VH
VL: B1 VL with S91Y
Turning to B3, the binding entry in assay [1] and in assay [5] was “binds” each time.

B4: hz24F7.v2 S91T (antibody, human IgG1, kappa, N297G, V domains shown)
VH: B1 VH
VL: B1 VL with S91T
For the molecule B4, the binding result in assay [1] is “binds”.

B5: hz24F7.v2 S91A (antibody, human IgG1, kappa, N297G, V domains shown)
VH: B1 VH
VL: B1 VL with S91A
Consider B5, for which the binding entry in assay [1] is on record as “binds”.

B6: hz24F7.v2 S91L (antibody, human IgG1, kappa, N297G, V domains shown)
VH: B1 VH
VL: B1 VL with S91L
As for B6, in assay [1], the binding entry was “binds”.

B7: hz24F7.v2 S92D (antibody, human IgG1, kappa, N297G, V domains shown)
VH: B1 VH
VL: B1 VL with S92D
B7: the binding result in assay [1] is given as “binds”.

B8: hz24F7.v2 S92T (antibody, human IgG1, kappa, N297G, V domains shown)
VH: B1 VH
VL: B1 VL with S92T
Consider B8, for which the binding entry in assay [1] is listed as “binds”.

B9: antibody 24F7 (antibody, V domains shown)
VH: QVQLQQSGAELVRPGASVKLSCKASGYTFTDYEMHWVKQTPVHGLEWIGAIDPETGGTAYNQKFKGKATLTADKSSSTAYMELRSLTSEDSAVYYCTREGYSYDGGGYYFDYWGQGTTLTVSS
VL: QIVLTQSPAIMSASPGEKVTMTCSVSSSVSYMYWYQQKPGSSPRLLIYDTSNLASGVPVRFSGSGSGTSYSLTISRMEAEDAATYYCQQWSSYPTFGGGTKLEIK
B9: the binding entry in assay [1] is recorded as “binds”.

Source of the values: US20220251241A1.
